Data published in publication PMC10485894, “Corticosteroids as Selective and Effective Modulators of Glycine Receptors” (ACS Chemical Neuroscience, 2023).

Legend:
[1] = tested on: GABA-A receptors (GABAAR); assay: GABA-activated chloride current (IGABA), whole-cell patch clamp in isolated cerebellar Purkinje cells; settings: 2 μM GABA
glycine receptors (GlyR) = assay: Glycine-activated chloride current (IGly), whole-cell patch clamp in isolated hippocampal pyramidal neurons; settings: 100 μM glycine; for Ipeak Hill coefficient: peak amplitude of IGly; for τdes Hill coefficient: time constant of desensitization of IGly;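 for all read-outs here: rat CA3 hippocampal pyramidal cells, whole-cell voltage clamp held at −70 mV, steroids tested over 0.01–100 µM, 6–8 cells from 3 animals per mean value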

| SMILES | Hill coefficient for potentiation of IGABA [1] | Ipeak Hill coefficient (glycine receptors (GlyR)) | τdes Hill coefficient (glycine receptors (GlyR)) | normalized charge (Q) of IGly, Hill coefficient (glycine receptors (GlyR)) |
| --- | --- | --- | --- | --- |
| C[C@]12CC[C@@H](O)C[C@@H]1CC[C@@H]1[C@@H]2[C@@H](O)C[C@]2(C)[C@@H](C(=O)CO)CC[C@@H]12 [3α5α-CORT, 3α,11β,21-Trihydroxy-5α-pregnan-20-one] | 1.3 ± 0.4 | 0.8 ± 0.2 | 0.9 ± 0.3 | – |
| C[C@]12CC[C@@H](O)C[C@H]1CC[C@@H]1[C@@H]2[C@@H](O)C[C@]2(C)[C@@H](C(=O)CO)CC[C@@H]12 [3α5β-CORT, 3α,11β,21-Trihydroxy-5β-pregnan-20-one] | 1.4 ± 0.6 | 1.3 ± 0.3 | 1.3 ± 0.5 | – |
| C[C@]12CCC(=O)C[C@@H]1CC[C@@H]1[C@@H]2CC[C@]2(C)[C@@H](C(=O)CO)CC[C@@H]12 [5α-CORT, 21-Hydroxy-5α-pregnane-3,20-dione] | – | 1.3 ± 0.2 | 1.1 ± 0.4 | – |
| C[C@]12CCC(=O)C[C@H]1CC[C@@H]1[C@@H]2CC[C@]2(C)[C@@H](C(=O)CO)CC[C@@H]12 [5β-CORT, 21-Hydroxy-5β-pregnane-3,20-dione] | – | 1.3 ± 0.3 | 1.1 ± 0.4 | 1.0 ± 0.2 |
| C[C@]12CCC(=O)C=C1CC[C@@H]1[C@@H]2CC[C@@]2(C)[C@H]1CC[C@]2(O)C(=O)CO [11-Deoxycortisol, 17α,21-Dihydroxypregn-4-ene-3,20-dione] | – | 1.3 ± 0.3 | 1.3 ± 0.5 | – |
| C[C@]12CC[C@H]3[C@@H](CCC4=CC(=O)CC[C@@]43C)[C@@H]1CC[C@@H]2C(=O)CO [11-deoxy-CORT, 21-Hydroxypregn-4-ene-3,20-dione] | – | 1.3 ± 0.4 | 1.3 ± 0.2 | – |
| C[C@]12CC[C@H](O)CC1=CCC1C2CC[C@@]2(C)C1CC[C@]2(O)C(=O)CO (stereo partly drawn) [17α,21-diOH-PREG, 3β,17α,21-Trihydroxypregn-5-en-20-one] | – | 0.8 ± 0.1 | 1.3 ± 0.2 | 2.1 ± 0.4 |
| C[C@]12C[C@H](O)[C@H]3[C@@H](CCC4=CC(=O)CC[C@@]43C)[C@@H]1CC[C@@H]2C(=O)CO [CORT, 11β,21-Dihydroxypregn-4-ene-3,20-dion] | – | 0.7 ± 0.1 | 1.4 ± 0.2 | – |
| C[C@]12CCC(=O)C=C1CC[C@@H]1[C@@H]2[C@@H](O)C[C@@]2(C)[C@H]1CC[C@]2(O)C(=O)CO [Cortisol, 11β,17α,21-Trihydroxypregn-4-ene-3,20-dione] | – | 0.9 ± 0.2 | 1.0 ± 0.3 | – |
| C[C@]12CCC(=O)C=C1CC[C@@H]1[C@@H]2C(=O)C[C@@]2(C)[C@H]1CC[C@]2(O)C(=O)CO [Cortisone, 17α,21-Dihydroxypregn-4-ene-3,11,20-trione] | – | 1.3 ± 0.5 | 1.2 ± 0.5 | – |
